Results as given in paper PMC7533251.
No constants are given. Whether binding was seen depends on the method and setting. In cells and extracts the contact can be indirect. A result given as binding can be weak or reduced; the word gives no strength.

Columns and labels:
[1] = target: T1, Dickkopf 1 (DKK1) (mouse (endogenous in mouse AEC2 cells)) (UniProt O54908); experiment: co-IP; endogenous proteins in WT mouse AEC2 cell lysate; RAB6 antibody, DKK1 antibody or IgG cross-linked to protein A/G agarose beads, incubated overnight at 4 °C, eluted, Western blot; both directions
T1 sequence: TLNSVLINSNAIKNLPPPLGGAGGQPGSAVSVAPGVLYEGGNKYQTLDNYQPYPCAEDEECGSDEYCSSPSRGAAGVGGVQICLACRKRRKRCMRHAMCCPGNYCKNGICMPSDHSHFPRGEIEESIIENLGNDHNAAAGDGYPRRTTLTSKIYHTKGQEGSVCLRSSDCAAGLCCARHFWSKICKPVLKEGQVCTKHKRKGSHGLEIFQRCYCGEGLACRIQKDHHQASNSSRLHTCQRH

[2] = target: Ras-related protein 6 (RAB6) (mouse (endogenous in mouse AEC2 cells)); experiment: as above

Ras-related protein 6 (RAB6) (mouse (endogenous in mouse AEC2 cells))
binding [1]: binds

B1: Dickkopf 1 (DKK1) (protein, UniProt O54908 32-272)
chain: TLNSVLINSNAIKNLPPPLGGAGGQPGSAVSVAPGVLYEGGNKYQTLDNYQPYPCAEDEECGSDEYCSSPSRGAAGVGGVQICLACRKRRKRCMRHAMCCPGNYCKNGICMPSDHSHFPRGEIEESIIENLGNDHNAAAGDGYPRRTTLTSKIYHTKGQEGSVCLRSSDCAAGLCCARHFWSKICKPVLKEGQVCTKHKRKGSHGLEIFQRCYCGEGLACRIQKDHHQASNSSRLHTCQRH
binding [2]: binds
